{
  "source": "patent US20040009485A1",
  "about": "“Cellular arrays for the identification of altered gene expression” (priority 2002, published 2004)",
  "test_system": "LuxArray 1.04 E. coli strains (luxCDABE gene fusions)",
  "test": "LuxArray 1.04 limonene stress of the reporter array in liquid culture",
  "type": "cell-based",
  "details": "80% saturated limonene in LB",
  "method": "Microplates from −80° C. containing the LuxArray 1.04 E. coli strains were thawed and used to inoculate 100 μl LB medium supplemented with 100 μg/ml ampicillin in Costar#3595 flat bottomed 96-well microplates. Following overnight growth at 37° C., the plates were visually examined and any wells with little or no turbidity were recorded. Then these cultures were diluted by transfer of 15 μl to 135 μl LB medium in Costar #3595, flat bottom 96-well microplates and were moderately swirl shaken on an IKA Schuttler MTS 4 shaker at setting 400 for two hrs at 37° C. in a humidified box. Twenty μl of each these actively growing cultures were transferred to the corresponding well in sets of three microplates, one containing 80 μl of LB medium, another containing 80 μl of LB medium saturated with limonene at room temperature, and the third containing 40 μl of LB medium saturated with limonene and 40 μl of LB medium. An initial (zero time) reading was taken using an MLX microplate luminometer (Dynex) pre-warmed to 37° C. Then the plates were placed at 37° C. without shaking. Additional bioluminescent measurements were taken at 45, 90, and 135 minutes. To limit the number of microplates handled each day, LuxArray 1.04 microplates 1 to 5, microplates 6 to 10, microplates 11 to 15, and microplates […] were used on each of four different days.\nThe data were normalized to correct for growth-inhibition caused by limonene on the basis of each individual day that data was collected. The bioluminescence (RLU) of each individual culture for each day of experimentation under each of the three conditions, were added to determine the daily array total RLU. These were used to find a daily normalization factor (DNF) as follows:\nDNF=Daily total array signal(time zero, LB control)/Daily total array signal(time x, condition y)\nEach measurement from the corresponding day, time point, and condition was multiplied by DNF to yield a normalized signal. The data from wells that were scored to have little or no growth were not used in further analysis. The normalized data were analyzed with GeneSpring (Silicon Genetics) software, which averaged the signal from each of the duplicate cultures for each reporter gene fusion.\nThus, patterns of gene expression from the 80% saturated limonene in LB medium were further examined. […] These lists were examined and gene fusions with very low normalized RLU values (<0.012 RLU) at all conditions were eliminated. […] The designation of “>2X” is given for upregulation while “*” is listed if the expression was less than 2 fold increased. At 45 minutes, the expression of fourteen gene fusions was increased; none of these was increased 3 fold or higher. At 90 minutes, 37 gene fusions were induced; these included all but one of the gene fusions observed at 45 minutes. […] These were fusions of the luxCDABE reporter to the promoter regions of uhpT (3.8×), nirB (3.7×) and narK (3.6×). At 135 minutes, 39 gene fusions were induced, which included 13 fusions not observed at 45 or 90 minutes.",
  "note": "This continues a long series; more values of the same kind are listed elsewhere.",
  "data": [
    {"smiles": "C=C(C)[C@H]1CC=C(C)CC1", "note": "[limonene]", "values": [
      {"measurement": "upregulation of gene fusion", "setting": "b0116 (lpdA) fusion, 45 minutes", "value": ">2X (The designation of “>2X” is given for upregulation)"},
      {"measurement": "upregulation of gene fusion", "setting": "b0116 (lpdA) fusion, 90 minutes", "value": ">2X (The designation of “>2X” is given for upregulation)"},
      {"measurement": "upregulation of gene fusion", "setting": "b0116 (lpdA) fusion, 135 minutes", "value": "* (“*” is listed if the expression was less than 2 fold increased)"},
      {"measurement": "upregulation of gene fusion", "setting": "b0123 (yacK) fusion, 90 minutes", "value": "* (“*” is listed if the expression was less than 2 fold increased)"},
      {"measurement": "upregulation of gene fusion", "setting": "b0123 (yacK) fusion, 135 minutes", "value": ">2X (The designation of “>2X” is given for upregulation)"},
      {"measurement": "upregulation of gene fusion", "setting": "b0168 (map) fusion, 45 minutes", "value": ">2X (The designation of “>2X” is given for upregulation)"},
      {"measurement": "upregulation of gene fusion", "setting": "b0168 (map) fusion, 90 minutes", "value": ">2X (The designation of “>2X” is given for upregulation)"},
      {"measurement": "upregulation of gene fusion", "setting": "b0168 (map) fusion, 135 minutes", "value": "* (“*” is listed if the expression was less than 2 fold increased)"},
      {"measurement": "upregulation of gene fusion", "setting": "b0386 (proC) fusion, 45 minutes", "value": "* (“*” is listed if the expression was less than 2 fold increased)"},
      {"measurement": "upregulation of gene fusion", "setting": "b0386 (proC) fusion, 90 minutes", "value": "* (“*” is listed if the expression was less than 2 fold increased)"},
      {"measurement": "upregulation of gene fusion", "setting": "b0386 (proC) fusion, 135 minutes", "value": ">2X (The designation of “>2X” is given for upregulation)"},
      {"measurement": "upregulation of gene fusion", "setting": "b0450 (glnK) fusion, 45 minutes", "value": "* (“*” is listed if the expression was less than 2 fold increased)"},
      {"measurement": "upregulation of gene fusion", "setting": "b0450 (glnK) fusion, 90 minutes", "value": "* (“*” is listed if the expression was less than 2 fold increased)"},
      {"measurement": "upregulation of gene fusion", "setting": "b0450 (glnK) fusion, 135 minutes", "value": ">2X (The designation of “>2X” is given for upregulation)"},
      {"measurement": "upregulation of gene fusion", "setting": "b0767 (ybhE) fusion, 45 minutes", "value": ">2X (The designation of “>2X” is given for upregulation)"},
      {"measurement": "upregulation of gene fusion", "setting": "b0767 (ybhE) fusion, 90 minutes", "value": ">2X (The designation of “>2X” is given for upregulation)"},
      {"measurement": "upregulation of gene fusion", "setting": "b0767 (ybhE) fusion, 135 minutes", "value": ">2X (The designation of “>2X” is given for upregulation)"},
      {"measurement": "upregulation of gene fusion", "setting": "b0774 (bioA) fusion, 45 minutes", "value": "* (“*” is listed if the expression was less than 2 fold increased)"},
      {"measurement": "upregulation of gene fusion", "setting": "b0774 (bioA) fusion, 90 minutes", "value": "* (“*” is listed if the expression was less than 2 fold increased)"},
      {"measurement": "upregulation of gene fusion", "setting": "b0774 (bioA) fusion, 135 minutes", "value": ">2X (The designation of “>2X” is given for upregulation)"},
      {"measurement": "upregulation of gene fusion", "setting": "b0842 fusion, 45 minutes", "value": ">2X (The designation of “>2X” is given for upregulation)"},
      {"measurement": "upregulation of gene fusion", "setting": "b0842 fusion, 90 minutes", "value": ">2X (The designation of “>2X” is given for upregulation)"},
      {"measurement": "upregulation of gene fusion", "setting": "b0842 fusion, 135 minutes", "value": ">2X (The designation of “>2X” is given for upregulation)"},
      {"measurement": "upregulation of gene fusion", "setting": "b1186 (nhaB) fusion, 45 minutes", "value": ">2X (The designation of “>2X” is given for upregulation)"},
      {"measurement": "upregulation of gene fusion", "setting": "b1186 (nhaB) fusion, 90 minutes", "value": ">2X (The designation of “>2X” is given for upregulation)"},
      {"measurement": "upregulation of gene fusion", "setting": "b1186 (nhaB) fusion, 135 minutes", "value": ">2X (The designation of “>2X” is given for upregulation)"},
      {"measurement": "upregulation of gene fusion", "setting": "b1413 (hrpA) fusion, 45 minutes", "value": ">2X (The designation of “>2X” is given for upregulation)"},
      {"measurement": "upregulation of gene fusion", "setting": "b1413 (hrpA) fusion, 90 minutes", "value": ">2X (The designation of “>2X” is given for upregulation)"},
      {"measurement": "upregulation of gene fusion", "setting": "b1413 (hrpA) fusion, 135 minutes", "value": ">2X (The designation of “>2X” is given for upregulation)"},
      {"measurement": "upregulation of gene fusion", "setting": "b1847 (yebF) fusion, 45 minutes", "value": "* (“*” is listed if the expression was less than 2 fold increased)"},
      {"measurement": "upregulation of gene fusion", "setting": "b1847 (yebF) fusion, 90 minutes", "value": "* (“*” is listed if the expression was less than 2 fold increased)"},
      {"measurement": "upregulation of gene fusion", "setting": "b1847 (yebF) fusion, 135 minutes", "value": ">2X (The designation of “>2X” is given for upregulation)"},
      {"measurement": "upregulation of gene fusion", "setting": "b1852 (zwf) fusion, 45 minutes", "value": "* (“*” is listed if the expression was less than 2 fold increased)"},
      {"measurement": "upregulation of gene fusion", "setting": "b1852 (zwf) fusion, 90 minutes", "value": "* (“*” is listed if the expression was less than 2 fold increased)"},
      {"measurement": "upregulation of gene fusion", "setting": "b1852 (zwf) fusion, 135 minutes", "value": ">2X (The designation of “>2X” is given for upregulation)"},
      {"measurement": "upregulation of gene fusion", "setting": "b2019 (hisG) fusion, 45 minutes", "value": "* (“*” is listed if the expression was less than 2 fold increased)"},
      {"measurement": "upregulation of gene fusion", "setting": "b2019 (hisG) fusion, 90 minutes", "value": "* (“*” is listed if the expression was less than 2 fold increased)"},
      {"measurement": "upregulation of gene fusion", "setting": "b2019 (hisG) fusion, 135 minutes", "value": ">2X (The designation of “>2X” is given for upregulation)"},
      {"measurement": "upregulation of gene fusion", "setting": "b2114 (metG) fusion, 45 minutes", "value": "* (“*” is listed if the expression was less than 2 fold increased)"},
      {"measurement": "upregulation of gene fusion", "setting": "b2114 (metG) fusion, 90 minutes", "value": "* (“*” is listed if the expression was less than 2 fold increased)"},
      {"measurement": "upregulation of gene fusion", "setting": "b2114 (metG) fusion, 135 minutes", "value": ">2X (The designation of “>2X” is given for upregulation)"},
      {"measurement": "upregulation of gene fusion", "setting": "b2428 fusion, 45 minutes", "value": "* (“*” is listed if the expression was less than 2 fold increased)"},
      {"measurement": "upregulation of gene fusion", "setting": "b2428 fusion, 90 minutes", "value": "* (“*” is listed if the expression was less than 2 fold increased)"},
      {"measurement": "upregulation of gene fusion", "setting": "b2428 fusion, 135 minutes", "value": ">2X (The designation of “>2X” is given for upregulation)"},
      {"measurement": "upregulation of gene fusion", "setting": "b3573 fusion, 45 minutes", "value": "* (“*” is listed if the expression was less than 2 fold increased)"},
      {"measurement": "upregulation of gene fusion", "setting": "b3573 fusion, 90 minutes", "value": "* (“*” is listed if the expression was less than 2 fold increased)"},
      {"measurement": "upregulation of gene fusion", "setting": "b3573 fusion, 135 minutes", "value": ">2X (The designation of “>2X” is given for upregulation)"},
      {"measurement": "upregulation of gene fusion", "setting": "b3779 (gppA) fusion, 45 minutes", "value": "* (“*” is listed if the expression was less than 2 fold increased)"},
      {"measurement": "upregulation of gene fusion", "setting": "b3779 (gppA) fusion, 90 minutes", "value": "* (“*” is listed if the expression was less than 2 fold increased)"},
      {"measurement": "upregulation of gene fusion", "setting": "b3779 (gppA) fusion, 135 minutes", "value": ">2X (The designation of “>2X” is given for upregulation)"},
      {"measurement": "upregulation of gene fusion", "setting": "b4226 (ppa) fusion, 45 minutes", "value": "* (“*” is listed if the expression was less than 2 fold increased)"},
      {"measurement": "upregulation of gene fusion", "setting": "b4226 (ppa) fusion, 90 minutes", "value": "* (“*” is listed if the expression was less than 2 fold increased)"},
      {"measurement": "upregulation of gene fusion", "setting": "b4226 (ppa) fusion, 135 minutes", "value": ">2X (The designation of “>2X” is given for upregulation)"}
    ]}
  ]
}
